In article PMC11425199:
Results are given in words; binding and its absence hold for the method and conditions named. Binding seen in cells or lysates may run through a third protein. Some entries that bind do so weakly or less than the wild type. Tags and fused reporters may be left off the sequences shown.

Amino acid sequences for entries named in this document (tags omitted). Residues count along the entry.
UniProt Q9DC69, residues 36-377: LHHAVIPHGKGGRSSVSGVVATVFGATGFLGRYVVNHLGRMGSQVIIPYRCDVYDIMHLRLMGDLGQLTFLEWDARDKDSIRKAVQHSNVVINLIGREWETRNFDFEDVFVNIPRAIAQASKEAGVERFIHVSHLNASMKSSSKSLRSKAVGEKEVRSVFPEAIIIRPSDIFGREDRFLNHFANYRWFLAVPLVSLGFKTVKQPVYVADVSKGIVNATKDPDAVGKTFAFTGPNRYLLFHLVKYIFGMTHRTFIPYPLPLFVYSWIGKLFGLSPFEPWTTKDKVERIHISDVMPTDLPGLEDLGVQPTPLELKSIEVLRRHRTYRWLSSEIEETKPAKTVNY

Target: T1, FLAG-tagged Aifm3 (apoptosis-inducing factor mitochondria associated 3) (mouse) (UniProt Q3TY86)
T1 sequence: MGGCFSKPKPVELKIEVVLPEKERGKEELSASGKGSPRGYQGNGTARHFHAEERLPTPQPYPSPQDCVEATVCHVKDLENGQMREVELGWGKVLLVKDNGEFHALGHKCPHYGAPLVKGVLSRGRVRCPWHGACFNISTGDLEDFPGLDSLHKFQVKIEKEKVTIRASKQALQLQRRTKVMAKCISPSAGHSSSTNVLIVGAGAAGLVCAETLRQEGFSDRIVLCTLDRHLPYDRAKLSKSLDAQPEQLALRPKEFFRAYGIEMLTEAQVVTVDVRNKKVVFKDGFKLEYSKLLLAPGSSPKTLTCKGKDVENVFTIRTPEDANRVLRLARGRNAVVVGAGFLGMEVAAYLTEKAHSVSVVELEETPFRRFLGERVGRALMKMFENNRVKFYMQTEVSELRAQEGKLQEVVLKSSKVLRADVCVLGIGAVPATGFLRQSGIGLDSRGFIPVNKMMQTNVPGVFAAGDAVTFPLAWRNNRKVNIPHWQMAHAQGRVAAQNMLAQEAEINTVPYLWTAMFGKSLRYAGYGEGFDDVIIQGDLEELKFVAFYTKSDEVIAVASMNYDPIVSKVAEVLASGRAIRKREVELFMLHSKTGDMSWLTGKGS
Assay: co-IP; N2a cells co-transfected with FLAG- and HA-tagged overexpression plasmids for 3 d; lysed in co-IP lysis buffer (Beyotime) with 1% PMSF and 1% protease inhibitor cocktail; supernatant incubated with anti-Flag or HA-tag magnetic beads (MBL) at 4° overnight; washed 3 times with cold 0.02% PBST; Western blot

- binding: binds
Substance: HA-tagged Ndufa9 (from UniProt Q9DC69 36-377)
